# According to patent publication EP0584223B1, “NOVEL IMMUNOSUPPRESSIVE COMPOUNDS” (VERTEX PHARMACEUTICALS INCORPORATED, priority 1991, dated 1992):
# Chains of the proteins cited; added tags and fusions are not shown.
# UniProt P62942, whole entry: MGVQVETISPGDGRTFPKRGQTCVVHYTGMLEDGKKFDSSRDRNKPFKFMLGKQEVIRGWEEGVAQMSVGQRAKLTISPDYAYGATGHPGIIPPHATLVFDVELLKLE
# At least one structure is not confirmed: it was looked up by name or label, or the drawing left a doubt.
# What was measured:
# [1] = system: PBLs stimulated with LB human viral-transformed B lymphoblastoid cell line; test: MLR bioassay, PBLs stimulated with LB cells; format: cell-based; conditions: mixed lymphocyte reaction, LB stimulator cells; inhibition of proliferation
# Description: (§1) Fresh peripheral blood lymphocytes (PBLs) from LeukoPak cells or whole blood from random normal blood donors (tested HIV-negative and hepatitis negative) are isolated and separated by density centrifugation over Histopaque 1077 (Sigma Chemical Co., St. Louis, MO). The murine CTLL cytotoxic T cell line and the human Jurkat T cell line are from ATCC (CTLL-2 ATCC TIB214, JURKAT CLONE E6-1 ATCC TIBl52). The human allogeneic B cell lines used for activation of the fresh PBLs are EBV-transformed lymphocytes from normal healthy adult donors with two completely different HLA haplotypes. All cell lines were routinely tested for the presence of Mycoplasma contamination using the Gibco Mycotect test kit and are Mycoplasma-free. Culture medium consists of RPMI 1640 (Gibco, Grand Island, NY) containing penicillin (50 U/ml) and streptomycin (50 µg/ml), L-glutamine 2 mM, 2 mercaptoethanol (5 x 10^-5), 10% heat-inactivated FCS and 10 mM HEPES.
# (§2) All chemical stocks were dissolved in DMSO.
# (§3) Antigen activated proliferation of PBLs in a primary mixed lymphocyte reaction was assessed in the presence or absence of different concentrations of tested compounds and control drugs. […] Cultures were pulsed on day 6, harvested 24 h later and counted as in previous section.
# [2] = system: CTLL-20 murine T cell line; test: IL-2 microassay, IL-2 dependent CTLL proliferation; format: cell-based; conditions: inhibition of proliferation of cytotoxic T cells stimulated by IL-2
# [3] = system: human peripheral blood lymphocytes (PBC); test: Mitogenesis assay, OKT3 stimulated proliferation; format: cell-based; conditions: OKT3 (10^-4 dilution final); inhibition of proliferation, 3H-thymidine
# [4] = system: PBLs stimulated with JVM human viral-transformed B lymphoblastoid cell line; test: MLR bioassay, PBLs stimulated with JVM cells; format: cell-based; conditions: mixed lymphocyte reaction, JVM stimulator cells; inhibition of proliferation
# Description: as §1, §2, §3
# [5] = target: FKBP (Homo sapiens, UniProt P62942); test: Inhibition of FKBP PPIase (rotamase) activity, chymotrypsin-coupled assay; format: biochemical; conditions: apparent Ki
# Description: The inhibition of the PPIase (rotamase) enzyme activity of the FKBP (apparent "Ki" values) can also be measured according to the methods described by either Harding, M.W. et al., Nature 341:758-760 (1989) or Siekierka, J.J. et al., Nature 341:755-757 (1989). The cis-trans isomerization of the […] peptide bond in a model substrate, N-succinyl-Ala-Ala-Pro-Phe-p-nitroanilide, is monitored spectrophotometrically in a coupled assay with chymotrypsin, which releases 4-nitroanilide from the trans form of the substrate. Fischer, G. et al., Nature 337:476-478 (1989). The inhibitory effect of the addition of different concentrations of inhibitor on the extent of the reaction is determined, and analysis of the change in first order rate constant as a function of inhibitor concentration yields an estimate of the apparent Ki value.
compound,measurement,setting,value
"COc1cc(C(=O)C(=O)N2CCCC[C@H]2C(=O)OC(CCCc2ccccc2)CCCn2cnc3cncnc32)cc(OC)c1OC (mixture of isomers) [Compound 25, (R and S)-1-Phenyl-7-purinyl-4-heptyl (S)-N-(3,4,5-trimethoxyphenylglyoxyl)pipecolate]",IC50,[1],2500 nM
same,IC50,[2],3000 nM
same,IC50,[3],2000 nM
same,IC50,[4],2000 nM
same,Ki,[5],9 nM
